Results deposited as PubChem BioAssay AID1259308 (NCATS, 2017).

Assay: 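Knock-downs that increase output of a recombinant reporter protein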 (primary screen)
Cell system: human HEK293 embryonic kidney cells stably expressing firefly luciferase (HEK-CMV-Luc2-Hygro)
Reagent: single siRNA against human genes, 0.8 pmol siRNA per well
Duration: 72 h
Detection: 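Reporter luminescence and viable-cell signal on separate replicate plates, given as percent of non-targeting control and median/MAD z-scores, plus per-cell luciferase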
Scale: total luciferase, z-score: higher = more reporter protein produced
Hit rule: 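An siRNA counts as active if its total luciferase robust z-score exceeds 3; genes with two or more such siRNAs out of three were retested with fresh siRNAs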
Meaning of the calls: active = raised luciferase; inactive = no rise
In all, the deposit lists about 59,000 reagents; below is a part drawn at random. Over the whole deposit, about 1,510 (2.6%) are marked active. 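Calls use total luciferase alone and ignore viability, so some active siRNAs may act by altering cell number.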 The numbers tell different reagents against one gene apart. Not all columns of the deposit are shown.

total luciferase, z-score, by gene and reagent
LRRC14B (leucine rich repeat containing 14B): #1 -0.273 inactive; #2 4.3 active; #3 -1.57 inactive
SENP2 (SUMO specific peptidase 2): #1 -1.37 inactive; #2 0.322 inactive; #3 -0.057 inactive
SDHD (succinate dehydrogenase complex subunit D): #1 -1.88 inactive; #2 -0.184 inactive; #3 -0.388 inactive
RRBP1 (ribosome binding protein 1): #1 2.07 inactive; #2 0.246 inactive; #3 0.0831 inactive
ARL13B (ARF like GTPase 13B): #1 -0.855 inactive; #2 4.86 active; #3 -0.276 inactive
ABLIM1 (actin binding LIM protein 1): #1 -0.0711 inactive; #2 1.74 inactive; #3 3.47 active
TLR2 (toll like receptor 2): #1 0.157 inactive; #2 -0.794 inactive; #3 0.306 inactive
PTCD2 (pentatricopeptide repeat domain 2): #1 1.44 inactive; #2 -0.516 inactive; #3 -1.07 inactive
EIF2AK1 (eukaryotic translation initiation factor 2 alpha kinase 1): #1 -1.39 inactive; #2 1.92 inactive; #3 3.15 active
TRIM36 (tripartite motif containing 36): #1 -0.504 inactive; #2 -0.191 inactive; #3 -1.04 inactive
ZBTB4 (zinc finger and BTB domain containing 4): #1 1.23 inactive; #2 0.35 inactive; #3 -0.237 inactive
CYP26C1 (cytochrome P450 family 26 subfamily C member 1): #1 -0.177 inactive; #2 0.908 inactive; #3 1.45 inactive
ISOC2 (isochorismatase domain containing 2): #1 -0.913 inactive; #2 1.07 inactive; #3 -1.95 inactive
RAPGEFL1 (Rap guanine nucleotide exchange factor like 1): #1 -2.34 inactive; #2 -0.711 inactive; #3 0.45 inactive
EHD2 (EH domain containing 2): #1 2.39 inactive; #2 2.53 inactive; #3 0.726 inactive
FBXO44 (F-box protein 44): #1 0.407 inactive; #2 2.66 inactive; #3 -1.45 inactive
MYF6 (myogenic factor 6): #1 -1.01 inactive; #2 -0.648 inactive; #3 -1.23 inactive
CENPA (centromere protein A): #1 1.68 inactive; #2 0.529 inactive; #3 0.0603 inactive
USP21 (ubiquitin specific peptidase 21): #1 -0.334 inactive; #2 -0.726 inactive; #3 -0.606 inactive

As entered above.
For “total luciferase, z-score”, FBXO44 (F-box protein 44) #3 is entered as -1.45
MYF6 (myogenic factor 6) #3, total luciferase, z-score = -1.23
Result of TRIM36 (tripartite motif containing 36) #2 in “total luciferase, z-score”: -0.191
Entry for ISOC2 (isochorismatase domain containing 2) #3 in “total luciferase, z-score”: -1.95
For “call”, ABLIM1 (actin binding LIM protein 1) #3 has active
Result for EIF2AK1 (eukaryotic translation initiation factor 2 alpha kinase 1) #1 in “total luciferase, z-score”: -1.39
